Assay results as given in US8329730B2, “Compounds” (Glaxo Group Limited, priority 2008, dated 2012).
Counter-ions that a name gives are not always drawn. Some results were stated once for a whole list of compounds, not compound by compound.

Amino acid sequences for entries named in this document (tags omitted). A change or cut given only in a name is not applied to a line headed by its entry.
UniProt Q99500: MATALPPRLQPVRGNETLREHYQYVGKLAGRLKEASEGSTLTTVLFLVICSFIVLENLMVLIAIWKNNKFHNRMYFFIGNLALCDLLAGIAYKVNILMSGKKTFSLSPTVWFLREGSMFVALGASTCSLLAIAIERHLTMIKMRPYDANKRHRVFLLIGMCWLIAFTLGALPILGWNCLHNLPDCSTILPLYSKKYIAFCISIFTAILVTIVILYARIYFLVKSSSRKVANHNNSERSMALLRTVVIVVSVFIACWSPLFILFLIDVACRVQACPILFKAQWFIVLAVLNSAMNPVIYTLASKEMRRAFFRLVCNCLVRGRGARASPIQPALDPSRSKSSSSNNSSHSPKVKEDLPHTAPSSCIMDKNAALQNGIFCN
UniProt P21453, whole entry: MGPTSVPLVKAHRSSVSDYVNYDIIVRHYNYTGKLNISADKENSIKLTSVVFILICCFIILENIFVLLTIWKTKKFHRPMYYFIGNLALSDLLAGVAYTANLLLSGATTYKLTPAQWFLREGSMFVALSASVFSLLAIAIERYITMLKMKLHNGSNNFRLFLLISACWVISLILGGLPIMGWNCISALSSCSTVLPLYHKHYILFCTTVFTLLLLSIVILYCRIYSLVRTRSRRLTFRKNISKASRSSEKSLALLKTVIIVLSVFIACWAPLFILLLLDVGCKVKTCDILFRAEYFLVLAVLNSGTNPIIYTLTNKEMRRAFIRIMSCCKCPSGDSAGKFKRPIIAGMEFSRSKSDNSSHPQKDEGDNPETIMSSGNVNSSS

Columns and labels:
human S1P3 receptor = target: T1, human S1P3 receptor (Homo sapiens, UniProt Q99500); assay: S1P3 GTPγS binding assay (and alternative method); type: biochemical
T1 construct: expressed in transfected cells; membranes
Method: For membrane preparations all steps were performed at 4° C. Rat hepatoma cells stably expressing the human S1P1 receptor or Rat Basophilic Leukaemia cells (RBL) stably expressing human S1P3 receptor were grown to 80% confluency before being harvested into 10 ml Phospho-Buffered Saline (PBS) and centrifuged at 1200 rpm […]. After removal of the supernatant, the pellet was re-suspended and cells were homogenised within a glass Waring blender for 2 bursts of 15 secs in 200 mls of buffer (50 mM HEPES, 1 mM leupeptin, 25 μg/ml bacitracin, 1 mM EDTA, 1 mM PMSF, 2 μM pepstatin A). The blender was plunged into ice for 5 mins after the first burst and 10-40 mins after the final burst to allow foam to dissipate. The material was then spun at 500 g for 20 mins and the supernatant spun for 36 mins at 48,000 g. The pellet was resuspended in the same buffer as above but without PMSF and pepstatin A. The material was then forced through a 0.6 mm needle, made up to the required volume, (usually ×4 the volume of the original cell pellet), aliquoted and stored frozen at −80° C. S1P3 membranes from rat basophilic leukaemia cells (RBL-2H3)(1.5 μg/well) were adhered to WGA-coated SPA beads (0.125 mg/well) in assay buffer (HEPES 20 mM, MgCl2 3 mM, NaCl 100 mM and pH adjusted to 7.4 using KOH 5M), GDP 10 μM FAC and saponin 90 μg/ml FAC was also added). After 30 minutes pre-coupling on ice the bead and membrane suspension was dispensed into a white Greiner polypropylene LV384-well plate (5 μl/well), containing 0.1 μl of the compound. 5 μl/well [^35S]-GTPγS (0.5 nM final radioligand conc) made up in assay buffer was then added to agonist plates. The final assay cocktail (10.1 μl) was centrifuged at 1000 rpm for 5 minutes then read immediately on a Viewlux reader. All test compounds were dissolved in DMSO at a concentration of 10 mM and were prepared in 100% DMSO using a 1 in 4 dilution step to provide 11 point dose response curves. The dilutions were transferred to the assay plates ensuring that the DMSO concentration was constant across the plate for all assays. All data was normalized to the mean of 16 high and 16 low control wells on each plate. A four parameter curve fit was then applied. S1P3 expressing RBL membranes (1.5 μg/well) were homogenised by passing through a 23G needle. These were then adhered to WGA-coated SPA beads (0.125 mg/well) in assay buffer (HEPES 20 mM, MgCl2 10 mM, NaCl 100 mM and pH adjusted to 7.4 using KOH 5M). GDP 10 μM FAC and saponin 90 μg/ml FAC were also added After 30 minutes precoupling on ice, the bead and membrane suspension was dispensed into white Greiner polypropylene LV 384-well plates (5 μl/well), containing 0.1 μl of compound. 5 μl/well [^35S]-GTPγS (0.5 nM for S1P1 or 0.3 nM for S1P3 final radioligand concentration) made in assay buffer was then added to the plates. The final assay cocktail (10.1 μl) was then sealed, spun on a centrifuge, then read immediately on a Viewlux instrument.

human S1P1 receptor = target: T2, human S1P1 receptor (Homo sapiens, UniProt P21453); assay: S1P1 GTPγS binding assay (and alternative method); type: biochemical
T2 construct: expressed in transfected cells; membranes
Method: For membrane preparations all steps were performed at 4° C. Rat hepatoma cells stably expressing the human S1P1 receptor or Rat Basophilic Leukaemia cells (RBL) stably expressing human S1P3 receptor were grown to 80% confluency before being harvested into 10 ml Phospho-Buffered Saline (PBS) and centrifuged at 1200 rpm […]. After removal of the supernatant, the pellet was re-suspended and cells were homogenised within a glass Waring blender for 2 bursts of 15 secs in 200 mls of buffer (50 mM HEPES, 1 mM leupeptin, 25 μg/ml bacitracin, 1 mM EDTA, 1 mM PMSF, 2 μM pepstatin A). The blender was plunged into ice for 5 mins after the first burst and 10-40 mins after the final burst to allow foam to dissipate. The material was then spun at 500 g for 20 mins and the supernatant spun for 36 mins at 48,000 g. The pellet was resuspended in the same buffer as above but without PMSF and pepstatin A. The material was then forced through a 0.6 mm needle, made up to the required volume, (usually ×4 the volume of the original cell pellet), aliquoted and stored frozen at −80° C. Human S1P1 rat hepatoma membranes (1.5 μg/well) were adhered to a wheatgerm agglutinin (WGA)-coated scintillation proximity assay (SPA) beads (0.125 mg/well) in assay buffer (HEPES 20 mM, MgCl2 10 mM, NaCl 100 mM and pH adjusted to 7.4 using KOH 5M, GDP 10 μM FAC (final assay concentration) and saponin 90 μg/ml FAC was also added). After 30 minutes pre-coupling on ice the bead and membrane suspension was dispensed into a white Greiner polypropylene LV384-well plate (5 μl/well), containing 0.1 μl of the compound. 5 μl/well [^35S]-GTPγS (0.5 nM final radioligand conc) made up in assay buffer was then added to agonist plates. The final assay cocktail […] was then centrifuged at 1000 rpm for 5 minutes then read immediately on a Viewlux reader. All test compounds were dissolved in DMSO at a concentration of 10 mM and were prepared in 100% DMSO using a 1 in 4 dilution step to provide 11 point dose response curves. The dilutions were transferred to the assay plates ensuring that the DMSO concentration was constant across the plate for all assays. All data was normalized to the mean of 16 high and 16 low control wells on each plate. A four parameter curve fit was then applied. S1P1 expressing RH7777 membranes (1.5 μg/well) […] were homogenised by passing through a 23G needle. These were then adhered to WGA-coated SPA beads (0.125 mg/well) in assay buffer (HEPES 20 mM, MgCl2 10 mM, NaCl 100 mM and pH adjusted to 7.4 using KOH 5M). GDP 10 μM FAC and saponin 90 μg/ml FAC were also added After 30 minutes precoupling on ice, the bead and membrane suspension was dispensed into white Greiner polypropylene LV 384-well plates (5 μl/well), containing 0.1 μl of compound. 5 μl/well [^35S]-GTPγS (0.5 nM for S1P1 or 0.3 nM for S1P3 final radioligand concentration) made in assay buffer was then added to the plates. The final assay cocktail (10.1 μl) was then sealed, spun on a centrifuge, then read immediately on a Viewlux instrument.

[1] = in one of the above S1P3 GTPγS binding assays (first or alternative method, RBL membranes)
[2] = in one of the above S1P1 GTPγS binding assays (first or alternative method, RH7777 membranes)
[3] = S1P3 GTPγS binding assay, S1P3 membranes from RBL-2H3 cells, first method
[4] = S1P1 GTPγS binding assay, human S1P1 rat hepatoma membranes, first method

CC(C)Oc1ccc(-c2nc(-c3cccc4c(N5CC(C(=O)O)C5)nccc34)no2)cc1Cl [Example 7, 1-[5-(5-{3-Chloro-4-[(1-methylethyl)oxy]phenyl}-1,2,4-oxadiazol-3-yl)-1-isoquinolinyl]-3-azetidinecarboxylic acid ammonium salt]
pEC50 (human S1P3 receptor; [1]): < 4.5
pEC50 (human S1P1 receptor; [2]): > 7

CC(C)Oc1ccc(-c2nc(-c3cccc4c(NCCC(=O)O)nccc34)no2)cc1Cl [Example 2, N-[5-(5-{3-Chloro-4-[(1-methylethyl)oxy]phenyl}-1,2,4-oxadiazol-3-yl)-1-isoquinolinyl]-β-alanine hydrochloride salt]
pEC50 (human S1P3 receptor; [3]): < 4.5
pEC50 (human S1P1 receptor; [4]): > 6
pEC50 (human S1P1 receptor; [2]): > 7

CCCOc1c(Cl)cc(-c2nc(-c3cccc4cnccc34)no2)cc1Cl [Example 16, 5-{5-[3,5-dichloro-4-(propyloxy)phenyl]-1,2,4-oxadiazol-3-yl}isoquinoline]
pEC50 (human S1P3 receptor; [1]): < 4.5
pEC50 (human S1P1 receptor; [2]): > 7

CC(C)Oc1ccc(-c2nc(-c3cccc4c(N5CCC(C(=O)O)CC5)nccc34)no2)cc1Cl [Example 4, 1-[5-(5-{3-Chloro-4-[(1-methylethyl)oxy]phenyl}-1,2,4-oxadiazol-3-yl)-1-isoquinolinyl]-4-piperidinecarboxylic acid lithium salt]
pEC50 (human S1P3 receptor; [3]): < 4.5
pEC50 (human S1P1 receptor; [4]): > 6

CC(C)Oc1ccc(-c2nc(-c3cccc4c(CCCC(=O)O)nccc34)no2)cc1Cl [Example 31, 4-[5-(5-{3-chloro-4-[(1-methylethyl)oxy]phenyl}-1,2,4-oxadiazol-3-yl)-1-isoquinolinyl]butanoic acid]
pEC50 (human S1P3 receptor; [1]): < 5
pEC50 (human S1P1 receptor; [2]): > 7

O=C(O)CCc1nccc2c(-c3noc(-c4ccc(OCC(F)(F)F)c(Cl)c4)n3)cccc12 [Example 24, 3-[5-(5-{3-Chloro-4-[(2,2,2-trifluoroethyl)oxy]phenyl}-1,2,4-oxadiazol-3-yl)-1-isoquinolinyl]propanoic acid hydrochloride]
pEC50 (human S1P3 receptor; [1]): < 4.5
pEC50 (human S1P1 receptor; [2]): > 7

O=C(O)CCc1nccc2c(-c3noc(-c4ccc(OCC5CC5)c(Cl)c4)n3)cccc12 [Example 22, 3-[5-(5-{3-chloro-4-[(cyclopropylmethyl)oxy]phenyl}-1,2,4-oxadiazol-3-yl)-1-isoquinolinyl]propanoic acid]
pEC50 (human S1P3 receptor; [1]): < 4.5
pEC50 (human S1P1 receptor; [2]): > 7

N#Cc1cc(-c2nc(-c3cccc4c(CCC(=O)O)nccc34)no2)ccc1N1CCC(F)C1 (stereo not shown) [Example 29, 3-(5-{5-[3-Cyano-4-(3-fluoro-1-pyrrolidinyl)phenyl]-1,2,4-oxadiazol-3-yl}-1-isoquinolinyl)propanoic acid]
pEC50 (human S1P3 receptor; [1]): < 4.5
pEC50 (human S1P1 receptor; [2]): > 7

CC(C)Oc1ccc(-c2nc(-c3cccc4c(CCCO)nccc34)no2)cc1Cl [Example 3, 3-[5-(5-{3-Chloro-4-[(1-methylethyl)oxy]phenyl}-1,2,4-oxadiazol-3-yl)-1-isoquinolinyl]-1-propanol]
pEC50 (human S1P3 receptor; [3]): < 4.5
pEC50 (human S1P1 receptor; [4]): > 6
pEC50 (human S1P1 receptor; [2]): > 7

N#Cc1cc(-c2nc(-c3cccc4c(CCC(=O)O)nccc34)no2)ccc1OCC(F)(F)F [Example 28, 3-[5-(5-{3-Cyano-4-[(2,2,2-trifluoroethyl)oxy]phenyl}-1,2,4-oxadiazol-3-yl)-1-isoquinolinyl]propanoic acid]
pEC50 (human S1P3 receptor; [1]): < 4.5
pEC50 (human S1P1 receptor; [2]): > 7

N#Cc1cc(-c2nc(-c3cccc4c(CCC(=O)O)nccc34)no2)ccc1OCC1CC1 [Example 25, 3-[5-(5-{3-Cyano-4-[(cyclopropylmethyl)oxy]phenyl}-1,2,4-oxadiazol-3-yl)-1-isoquinolinyl]propanoic acid]
pEC50 (human S1P3 receptor; [1]): < 4.5
pEC50 (human S1P1 receptor; [2]): > 7

CC(C)Oc1ccc(-c2nc(-c3cccc4cnccc34)no2)cc1Cl [Example 6, 5-(5-{3-Chloro-4-[(1-methylethyl)oxy]phenyl}-1,2,4-oxadiazol-3-yl)isoquinoline]
pEC50 (human S1P3 receptor; [3]): < 4.5
pEC50 (human S1P1 receptor; [4]): > 6
pEC50 (human S1P1 receptor; [2]): > 7

CC(C)Oc1ccc(-c2nc(-c3cccc4c(N[C@@H](C)C(=O)O)nccc34)no2)cc1Cl [Example 8, N-[5-(5-{3-Chloro-4-[(1-methylethyl)oxy]phenyl}-1,2,4-oxadiazol-3-yl)-1-isoquinolinyl]-L-alanine]
pEC50 (human S1P3 receptor; [1]): < 4.5
pEC50 (human S1P1 receptor; [2]): > 7

CC(C)Oc1ccc(-c2nc(-c3cccc4c(N5CCNCC5)nccc34)no2)cc1Cl.O=C(O)C(F)(F)F [Example 5, 5-(5-{3-Chloro-4-[(1-methylethyl)oxy]phenyl}-1,2,4-oxadiazol-3-yl)-1-(1-piperazinyl)isoquinoline trifluoroacetic acid salt]
pEC50 (human S1P3 receptor; [3]): < 4.5
pEC50 (human S1P1 receptor; [4]): > 6

CC(C)Oc1ccc(-c2nc(-c3cccc4c(CCC(=O)O)nccc34)no2)cc1Cl [Example 1, 3-[5-(5-{3-Chloro-4-[(1-methylethyl)oxy]phenyl}-1,2,4-oxadiazol-3-yl)-1-isoquinolinyl]propanoic acid lithium salt]
pEC50 (human S1P3 receptor; [3]): < 4.5
pEC50 (human S1P1 receptor; [4]): > 6

CC(C)Oc1ccc(-c2nc(-c3cccc4c(-c5cccc(C(=O)O)c5)nccc34)no2)cc1Cl [Example 32, 3-[5-(5-{3-Chloro-4-[(1-methylethyl)oxy]phenyl}-1,2,4-oxadiazol-3-yl)-1-isoquinolinyl]benzoic acid]
pEC50 (human S1P3 receptor; [1]): < 5
pEC50 (human S1P1 receptor; [2]): > 7

O=C(O)CCc1nccc2c(-c3noc(-c4ccc(OC(F)F)c(Cl)c4)n3)cccc12 [Example 23, 3-[5-(5-{3-Chloro-4-[(difluoromethyl)oxy]phenyl}-1,2,4-oxadiazol-3-yl)-1-isoquinolinyl]propanoic acid]
pEC50 (human S1P3 receptor; [1]): < 4.5
pEC50 (human S1P1 receptor; [2]): > 7
